Each structure is given as a SMILES string. Several values for one entry are separate records, joined by “and”; a condition that tells them apart may be missing. Identical values can stand only once. Counter-ions that a name gives are not always drawn. ± gives the standard deviation of the averaged measurements. The list shows a part of the results. Single values are uncertain, as repeats are few or missing.

This assay deals with RAW 264.7. As to the kind of experiment: HMGB1-induced TNF-alpha production relative to HMGB1-stimulated control; higher = more TNF-alpha secretion (less inhibition). The settings on record: stimulus: HMGB1 5 ug/ml, 18 h.
Where [1] appears, read: compound concentration: 1 ug/ml.

For `CN1[C@H]2C[C@H](OC(=O)[C@H](CO)c3ccccc3)C[C@@H]1[C@@H](O)C2`, the “HMGB1-induced TNF-alpha production” value (compound concentration: 3 uM) worked out at 86.6%. The same measure, in the same setting: next, `CCN(CC)CCOC(=O)C(O)(c1ccccc1)c1ccccc1`: 115%. In the case of `CNC(=O)Oc1ccc2c(c1)[C@]1(C)CCN(C)[C@@H]1N2C` [Eserine], the “HMGB1-induced TNF-alpha production” value under setting [1] worked out at 63.6%.

As to `CNC(=O)Oc1ccc2c(c1)[C@]1(C)CCN(C)[C@@H]1N2C` [Eserine sulfate, physostigmine sulfate], the “HMGB1-induced TNF-alpha production” value (compound concentration: 3 uM) was determined as 118%. The same measure, in the same setting: in the case of `CNC(=O)Oc1ccc2c(c1)[C@]1(C)CCN(C)[C@@H]1N2C` [(-)-Physostigmine] it was 79.2%; in that of `CNC(=O)Oc1ccc2c(c1)[C@]1(C)CCN(C)[C@@H]1N2C` [Physostigmine], 110 ± 10%; in that of `CNC(=O)Oc1ccc2c(c1)[C@]1(C)CCN(C)[C@@H]1N2C`, 92.9%. Still for that read-out and setting: in the case of `CCN(CCCl)Cc1ccccc1Br` [DSP-4 hydrochloride] it was 89.2%. As to `COc1ccc(C(CN(C)C)C2(O)CCCCC2)cc1` (centres undefined) [Venlafaxine], under “compound concentration: 3 uM”, the “HMGB1-induced TNF-alpha production” value came out at 103 ± 21%. Still for that read-out and setting: in the case of `COc1ccc(C(CN(C)C)C2(O)CCCCC2)cc1` (centres undefined) it was 100% and 81.1%; in that of `COc1ccc(C(CN(C)C)C2(O)CCCCC2)cc1` (centres undefined) [Venlafaxine hydrochloride], 88%. On to `CN1CCc2cc3c(cc2C1O)OCO3` (centres undefined), for which the “HMGB1-induced TNF-alpha production” value (compound concentration: 3 uM) worked out at 82%.

For the compound `CN1CCc2cc3c(cc2C1O)OCO3` (centres undefined) [Hydrastinine hydrochloride], the “HMGB1-induced TNF-alpha production” value was found to be 84.4% under setting [1] and 82.9% (compound concentration: 3 uM).

In the case of `CCNCC(O)c1cccc(O)c1` (centres undefined) [Etilefrine hydrochloride], the “HMGB1-induced TNF-alpha production” value (compound concentration: 3 uM) is 89.7%. Turning to `O=c1c(O)c(-c2ccc(O)c(O)c2)oc2c(O)c(O)cc(O)c12` [Gossypetin], under setting [1], the “HMGB1-induced TNF-alpha production” value is 73.9%. With `CCCCC(C#N)(Cn1cncn1)c1ccc(Cl)cc1` (centres undefined) [Myclobutanil], the “HMGB1-induced TNF-alpha production” value (compound concentration: 3 uM) came out at 67.7%. On to `CC(N)c1cccc(Cl)c1Cl` (racemic) [(±)-2,3-Dichloro-alpha-methylbenzylamine hydrochloride], for which, where the note is “compound concentration: 3 uM”, the “HMGB1-induced TNF-alpha production” value is 102%. On the same count and under the same terms, in the case of `COc1ccc(C(=O)c2c(C)n(CCN3CCOCC3)c3ccccc23)cc1` [Pravadoline] it was 108%. Take `COc1ccc2[nH]cc(C3=CCNCC3)c2c1`: the “HMGB1-induced TNF-alpha production” value (compound concentration: 3 uM) was determined as 93%. With `CC(C)(N)Cc1ccccc1`, the “HMGB1-induced TNF-alpha production” value (compound concentration: 3 uM) was 81.2%. The same measure, in the same setting: in the case of `CC(C)(N)Cc1ccccc1` [Phentermine hydrochloride] it was 105%; in that of `CN(CC[C@H](N)CC(=O)N[C@H]1C=C[C@H](n2ccc(N)nc2=O)O[C@@H]1C(=O)O)C(=N)N`, 110%. On the same count and under the same terms, in the case of `C[C@]12CCC(=O)C=C1CC[C@@H]1[C@@H]2CC[C@@]2(C)[C@H]1CC[C@]2(C)O` [Methyltestosterone] it was 100%; in that of `CN1[C@@H]2CC[C@H]1C[C@@H](OC(=O)C(CO)c1ccccc1)C2` (some centres undefined) [Atropine sulfate monohydrate], 117%. Same read-out and setting: next, `CN1[C@@H]2CC[C@H]1C[C@@H](OC(=O)C(CO)c1ccccc1)C2` (some centres undefined): 103%. On to `CN1[C@@H]2CC[C@H]1C[C@@H](OC(=O)C(CO)c1ccccc1)C2` (some centres undefined) [Atropine], for which the “HMGB1-induced TNF-alpha production” value runs as follows: under setting [1], 94.8%; (compound concentration: 3 uM) 107%. As for `CN1[C@@H]2CC[C@H]1C[C@@H](OC(=O)C(CO)c1ccccc1)C2` (some centres undefined) [Atropine sulfate], for the setting “compound concentration: 3 uM”, the “HMGB1-induced TNF-alpha production” value amounted to 91.5%. Consider `c1ccc(CCCN2CCN(CCOC(c3ccccc3)c3ccccc3)CC2)cc1`, for which the “HMGB1-induced TNF-alpha production” value (compound concentration: 3 uM) was found to be 71.9%. With `CC(C)C[C@H]1C(=O)N2CCC[C@H]2[C@]2(O)O[C@](NC(=O)[C@@H]3C=C4c5cccc6[nH]c(Br)c(c56)C[C@H]4N(C)C3)(C(C)C)C(=O)N12` [Bromocryptine mesylate], for the setting “compound concentration: 3 uM”, the “HMGB1-induced TNF-alpha production” value came to 52.5%. Turning to `CC(C)C[C@H]1C(=O)N2CCC[C@H]2[C@]2(O)O[C@](NC(=O)[C@@H]3C=C4c5cccc6[nH]c(Br)c(c56)C[C@H]4N(C)C3)(C(C)C)C(=O)N12`, the “HMGB1-induced TNF-alpha production” value (compound concentration: 3 uM) was determined as 79.4%.

As to `CC(C)C[C@H]1C(=O)N2CCC[C@H]2[C@]2(O)O[C@](NC(=O)[C@@H]3C=C4c5cccc6[nH]c(Br)c(c56)C[C@H]4N(C)C3)(C(C)C)C(=O)N12` [(+)-Bromocriptine methanesulfonate], where the note is “compound concentration: 3 uM”, the “HMGB1-induced TNF-alpha production” value is 83.4%. Same read-out and setting: in the case of `CC(C)C[C@H]1C(=O)N2CCC[C@H]2[C@]2(O)O[C@](NC(=O)[C@@H]3C=C4c5cccc6[nH]c(Br)c(c56)C[C@H]4N(C)C3)(C(C)C)C(=O)N12` [Bromocriptine] it was 87%; in that of `C=CCN1CC[C@]23c4c5ccc(O)c4O[C@H]2/C(=N/N=C2\CC[C@@]4(O)[C@H]6Cc7ccc(O)c8c7[C@@]4(CCN6CC=C)[C@H]2O8)CC[C@@]3(O)[C@H]1C5` [Naloxonazine], 83%. Same read-out and setting: next, `C=CCN1CC[C@]23c4c5ccc(O)c4O[C@H]2/C(=N/N=C2\CC[C@@]4(O)[C@H]6Cc7ccc(O)c8c7[C@@]4(CCN6CC=C)[C@H]2O8)CC[C@@]3(O)[C@H]1C5` [Naloxonazine dihydrochloride]: 102%; `COc1cc(C(O)CN)ccc1O` (racemic) [(±)-Normetanephrine hydrochloride]: 121%; `CCC1=C[C@H]2CN3CCc4c([nH]c5ccccc45)[C@](C(=O)OC)(C2)[C@H]13` [Catharanthine]: 88.5%. With `O=C(Cc1ccc(Cl)c(Cl)c1)N1CCCCC1CN1CCCC1` (centres undefined), for the setting “compound concentration: 3 uM”, the “HMGB1-induced TNF-alpha production” value amounted to 104%.

The values above are taken from the supplement of paper PMC3682954.
